# Measurements reported in publication PMC11656743.
# No constants are given. Whether binding was seen depends on the method and setting. Tags and fused reporters may be left off the sequences shown.
# B1: σ^A, recombinant, tag cleaved (strain LK2832) (protein, UniProt A0QW02 2-466)
# chain: GAATKASPATEEPVKRTATKTPAKKAPAKRAAKSAAAKAGGKAPAKKAPAKRAAKGTAAKPEDGVTDDLEVTDDLEAEPGEDLDVEDTDLELDDLDSDDDTAVEDEEEEADAATPAVATAKAADDDIDEPSEKDKASGDFVWDEEESEALRQARKDAELTASADSVRAYLKQIGKVALLNAEEEVELAKRIEAGLYATQKLAELAEKGEKLPVQQRRDMQWICRDGDRAKNHLLEANLRLVVSLAKRYTGRGMAFLDLIQEGNLGLIRAVEKFDYTKGYKFSTYATWWIRQAITRAMADQARTIRIPVHMVEVINKLGRIQRELLQDLGREPTPEELAKEMDITPEKVLEIQQYAREPISLDQTIGDEGDSQLGDFIEDSEAVVAVDAVSFTLLQDQLQSVLETLSEREAGVVRLRFGLTDGQPRTLDEIGQVYGVTRERIRQIESKTMSKLRHPSRSQVLRDYLD
# Molecular target: σ^A, recombinant, tag cleaved (strain LK2832) (M. smegmatis) (UniProt A0QW02)
# Assay: AUC; sedimentation velocity, 20°C, 50 mM HEPES pH 7.5, 100 mM NaCl, 0.5 mM TCEP, 3 mM NaN3; σ^A 19.4 µM, MoaB2 77.6 µM, σ^A:MoaB2 mixtures 1:0.1 to 1:4; both purified
binder,measurement,value
B1,binding,no binding (tested: 19.4 µM)
